The supplement of paper PMC9233669
This sample is rich in variants without activity.

Key:
biotinyl-Trp-oxazolone = test: self-aminoacylation, catalytic enhancement (BWO) (fold over background); higher = more active; k-Seq, kA / k0A0; sequences stand for … in GGGAAUGGAUCCACAUCUACGAAUUC…UUCACUGCAGACUUGACGAAGCUG
Procedure, shortened: (§1)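 Working in 50 μL HEPES/NaCl/KCl/MgCl2/CaCl2 buffer with 5% acetonitrile at pH 6.9–7.0, mutagenized RNA pools (0.43 μM; 21-nt variable region) were reacted with 2–1250 μM of each biotinyl-aminoacyl-oxazolone for 90 minutes at room temperature. Streptavidin capture followed, with quantification by triplicate qPCR and Illumina sequencing. Catalytic enhancement is reported as median kA over the uncatalyzed rate, the low-activity peak of a bimodal Gaussian fit to the data.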

biotinyl-Leu-oxazolone = test: self-aminoacylation, catalytic enhancement (BLO) (fold over background); higher = more active; k-Seq, kA / k0A0; sequences stand for … in GGGAAUGGAUCCACAUCUACGAAUUC…UUCACUGCAGACUUGACGAAGCUG
Procedure, shortened: as §1

biotinyl-Val-oxazolone = test: self-aminoacylation, catalytic enhancement (BVO) (fold over background); higher = more active; k-Seq, kA / k0A0; sequences stand for … in GGGAAUGGAUCCACAUCUACGAAUUC…UUCACUGCAGACUUGACGAAGCUG
Procedure, shortened: as §1

biotinyl-Ile-oxazolone = test: self-aminoacylation, catalytic enhancement (BIO) (fold over background); higher = more active; k-Seq, kA / k0A0; sequences stand for … in GGGAAUGGAUCCACAUCUACGAAUUC…UUCACUGCAGACUUGACGAAGCUG
Procedure, shortened: as §1

biotinyl-Met-oxazolone = test: self-aminoacylation, catalytic enhancement (BMO) (fold over background); higher = more active; k-Seq, kA / k0A0; sequences stand for … in GGGAAUGGAUCCACAUCUACGAAUUC…UUCACUGCAGACUUGACGAAGCUG
Procedure, shortened: as §1

biotinyl-Phe-oxazolone = test: self-aminoacylation, catalytic enhancement (BFO) (fold over background); higher = more active; k-Seq, kA / k0A0; sequences stand for … in GGGAAUGGAUCCACAUCUACGAAUUC…UUCACUGCAGACUUGACGAAGCUG
Procedure, shortened: as §1

Row | Sequence | self-aminoacylation (biotinyl-Trp-oxazolone) | self-aminoacylation (biotinyl-Leu-oxazolone) | self-aminoacylation (biotinyl-Val-oxazolone) | self-aminoacylation (biotinyl-Ile-oxazolone) | self-aminoacylation (biotinyl-Met-oxazolone) | self-aminoacylation (biotinyl-Phe-oxazolone)
1 | CUACUUCAAACAUUCGGCCUG [Fam1A.1 aminoacylation ribozyme variant] | 0.772 | 1.74 | 1.66 | 1.48 | 1.71 | 1.26
2 | CCACACUUGGAGCAAUCGGUC [Fam1B.1 aminoacylation ribozyme variant] | 1.36 | 0.863 | 1.25 | 1.21 | 0.838 | 0.829
3 | AUUCACCUAGGUCAUAGGGAG [Fam2.2 aminoacylation ribozyme variant] | 0.643 | 0.988 | 1.1 | 0.905 | 0.779 | 1.17
4 | AUUACCCCGGUCAACGAGUGA [Fam2.1 aminoacylation ribozyme variant] | 6.44 | 4.74 | 3.47 | 3.08 | 5.86 | 28.2
5 | CAGUUGGCUAAUAGUCGCAAG [Fam3.1 aminoacylation ribozyme variant] | 1.97 | 1.46 | 1.39 | 1.22 | 1.06 | 1.57
6 | AUUUACCUAGAUCAUCGGGUG [Fam2.2 aminoacylation ribozyme variant] | 3.38 | 3 | 1.88 | 2.17 | 2.35 | 12.3
7 | AAGUUUGUUAAUAGUGGCAAG [Fam3.1 aminoacylation ribozyme variant] | 0.589 | 0.626 | 0.566 | 0.637 | 0.694 | 0.879
8 | AUUACCCUGGUCACCGAGUCA [Fam2.1 aminoacylation ribozyme variant] | 1.84 | 1.75 | 1.49 | 1.43 | 1.45 | 0.799
9 | CCACACUUCAAGUAAUCGCUC [Fam1B.1 aminoacylation ribozyme variant] | 1.18 | 1.1 | 1.07 | 0.915 | 1.22 | 0.576
10 | CCACACUACCAGCAAUCGGUC [Fam1B.1 aminoacylation ribozyme variant] | 1.08 | 1.01 | 1.38 | 1.27 | 0.916 | 1.4
11 | AUUACCCUGGUCAUCAAGUAA [Fam2.1 aminoacylation ribozyme variant] | 0.629 | 0.589 | 0.585 | 0.742 | 0.659 | 0.488
12 | AUUAACCUAUGUCAUCGGGUG [Fam2.2 aminoacylation ribozyme variant] | 5.05 | 6.82 | 3.13 | 3.43 | 5.3 | 36
13 | AUUCACCUAGGUCAUCUGGCG [Fam2.2 aminoacylation ribozyme variant] | 1.91 |  | 1.94 | 1.75 | 1.92 | 1.02
14 | AUUCACCUAGCUCAUCGGGGG [Fam2.2 aminoacylation ribozyme variant] | 1.54 | 1.86 | 1.79 | 1.81 |  | 1.19
15 | AAGCUUGCUACUAGUCGCAAG [Fam3.1 aminoacylation ribozyme variant] |  |  | 1.83 |  |  | 1.75
16 | CCACACUUCAAGCAAUGGGCC [Fam1B.1 aminoacylation ribozyme variant] | 1.01 | 1.71 |  | 1.86 | 1.83 | 0.858
17 | AAGUUUGCGAAUAUUCGCAAG [Fam3.1 aminoacylation ribozyme variant] |  | 1.72 | 1.38 | 1.54 | 1.72 | 0.916
18 | AUUACGCUGCUCAUCGAGUGA [Fam2.1 aminoacylation ribozyme variant] |  | 1.82 | 1.63 | 1.53 | 1.49 | 1.22
19 | AAGUUUGCUAGUAGUCGCAAA [Fam3.1 aminoacylation ribozyme variant] |  | 0.751 | 1.06 | 1.2 | 1.29 | 1.07
20 | CCACACUUCAAACAAUCGGGC [Fam1B.1 aminoacylation ribozyme variant] |  | 1.72 | 1.81 | 1.87 | 1.48 | 1.23
21 | AUUCACCUAAGUCAUCGGGUA [Fam2.2 aminoacylation ribozyme variant] |  |  |  |  |  | 1.4
22 | CCACACUCCAGGCAAUCGGUC [Fam1B.1 aminoacylation ribozyme variant] |  | 1.23 | 1.53 | 1.46 | 1.11 | 1.2
23 | CCACACUGCAAGCAAUCGGGC [Fam1B.1 aminoacylation ribozyme variant] |  | 1.67 |  | 1.94 | 1.56 | 0.591
24 | AAGUUUGCUAAGAGUCGCCAG [Fam3.1 aminoacylation ribozyme variant] |  | 1.27 | 1.33 | 1.25 | 1.37 | 1.21
25 | CGACUUCAAACAACCGGUCUG [Fam1A.1 aminoacylation ribozyme variant] |  | 1.22 | 1.18 | 1.11 | 0.722 | 1.54
26 | AUUUACCUAGGUCAUCGGCUG [Fam2.2 aminoacylation ribozyme variant] | 1.17 | 1.97 | 1.71 | 1.55 | 1.7 | 
27 | CCAGACUUCGAGCAAUCGGUC [Fam1B.1 aminoacylation ribozyme variant] | 1.63 | 1.59 |  | 1.67 | 1.34 | 1.27

Row | Sequence | self-aminoacylation (biotinyl-Trp-oxazolone) | self-aminoacylation (biotinyl-Leu-oxazolone) | self-aminoacylation (biotinyl-Val-oxazolone) | self-aminoacylation (biotinyl-Ile-oxazolone) | self-aminoacylation (biotinyl-Met-oxazolone) | self-aminoacylation (biotinyl-Phe-oxazolone)
28 | CCACACUUGAAGCAAUCGGCC [Fam1B.1 aminoacylation ribozyme variant] |  |  |  | 1.83 | 1.86 | 0.992
29 | UAGUUUGCUCAUAGUCGCAAG [Fam3.1 aminoacylation ribozyme variant] | 1.57 | 1.69 | 1.28 | 1.75 | 1.51 | 
30 | AUUUACCUAGGUCAUCGUGUG [Fam2.2 aminoacylation ribozyme variant] | 0.691 | 1.18 | 0.953 | 0.874 | 0.995 | 
31 | AUUCGACUAGGUCAUCGGGUG [Fam2.2 aminoacylation ribozyme variant] | 6.57 | 8.63 | 3.95 | 4.46 | 7.05 | 
32 | CCACACUUCAAGCAAUCGGCG [Fam1B.1 aminoacylation ribozyme variant] |  | 1.79 |  | 1.31 |  | 0.672
33 | GAGUUUGCUAAUAGUAGCAAG [Fam3.1 aminoacylation ribozyme variant] | 1.23 | 1.03 | 1.28 | 1.53 | 1.25 | 
34 | CCACACUUCAAGCAUUCCGUC [Fam1B.1 aminoacylation ribozyme variant] |  |  |  |  |  | 1.46
35 | AAGUUUGCUAAUAGUAGCAAA [Fam3.1 aminoacylation ribozyme variant] | 1.3 | 1.17 | 1.56 | 1.5 | 1.18 | 
36 | AUUACCCUGGUCAGCGAGCGA [Fam2.1 aminoacylation ribozyme variant] | 1.94 |  |  | 1.99 |  | 1.88
37 | AAGUUAGUUAAUAGUCGCAAG [Fam3.1 aminoacylation ribozyme variant] | 1.76 | 1.58 | 1.38 | 1.72 | 1.36 | 
38 | AUUUCCCUGGUCAUUGAGUGA [Fam2.1 aminoacylation ribozyme variant] | 10 | 8.38 | 4.4 | 4.47 | 8.36 | 
39 | AUUCAUCUAGCUCAUCGGGUG [Fam2.2 aminoacylation ribozyme variant] |  | 1.99 | 1.73 | 1.91 |  | 1.31
40 | AAGUUUGCUAAUGGUCGCAAC [Fam3.1 aminoacylation ribozyme variant] | 1.37 | 1.54 | 0.997 | 1.04 | 1.17 | 
41 | AAGCUUGCUAAUAAUCGCAAG [Fam3.1 aminoacylation ribozyme variant] | 1.23 | 0.991 | 1.09 | 1.51 | 1.68 | 
42 | CCACAAUUCAAGUAAUCGGUC [Fam1B.1 aminoacylation ribozyme variant] | 1.36 | 0.898 | 0.91 | 0.96 | 0.906 | 
43 | AUUACCCUGGCCAUCGACUGA [Fam2.1 aminoacylation ribozyme variant] | 0.215 | 1.05 | 0.861 | 0.711 | 0.936 | 
44 | CUACUUCAAAAACUCGGUCUG [Fam1A.1 aminoacylation ribozyme variant] | 1.01 | 1.15 | 0.937 | 1.02 | 0.841 | 
45 | AUUCACCUAGGUCAUCGGCAG [Fam2.2 aminoacylation ribozyme variant] | 1.32 |  | 1.33 | 1.23 | 1.61 | 0.706
46 | AUUCACCUAGGUCAUAAGGUG [Fam2.2 aminoacylation ribozyme variant] | 2.59 | 3.48 | 1.69 | 1.98 | 3.33 | 
47 | AAGUUUUCUAAUAGUCUCAAG [Fam3.1 aminoacylation ribozyme variant] | 1.52 | 1.01 | 1.21 | 1.26 | 1.09 | 
48 | AUUCACCUGGGUCAUCGGGCG [Fam2.2 aminoacylation ribozyme variant] |  |  |  |  |  | 1.82
49 | GUUACCCUGGUCAUCGAUUGA [Fam2.1 aminoacylation ribozyme variant] | 0.875 | 1.6 | 1.24 | 1.38 | 1.48 | 
50 | AUUCACCUGGGUCAUCGGGUC [Fam2.2 aminoacylation ribozyme variant] | 1.52 | 1.45 | 1.89 | 1.68 | 1.91 | 
51 | AUUGCCCUCGUCAUCGAGUGA [Fam2.1 aminoacylation ribozyme variant] | 3.9 | 3.58 | 2.08 | 2.21 | 3.34 | 
52 | AUUACCCUGGUCAUGGAGGGA [Fam2.1 aminoacylation ribozyme variant] | 2.23 | 1.86 | 1.76 | 1.82 | 1.83 | 
53 | AAUCACCAAGGUCAUCGGGUG [Fam2.2 aminoacylation ribozyme variant] | 8.66 | 10.7 | 5.67 | 4.92 | 6.79 | 
